In the M2OR odorant receptor database:
Some of the results follow. Calls are pooled over several reports, among them a noisy single-well screen.

Experiments:
Conditions in all cases: stereoisomer not certain
O52I2 = test system: T1, O52I2
T1 sequence (whole entry): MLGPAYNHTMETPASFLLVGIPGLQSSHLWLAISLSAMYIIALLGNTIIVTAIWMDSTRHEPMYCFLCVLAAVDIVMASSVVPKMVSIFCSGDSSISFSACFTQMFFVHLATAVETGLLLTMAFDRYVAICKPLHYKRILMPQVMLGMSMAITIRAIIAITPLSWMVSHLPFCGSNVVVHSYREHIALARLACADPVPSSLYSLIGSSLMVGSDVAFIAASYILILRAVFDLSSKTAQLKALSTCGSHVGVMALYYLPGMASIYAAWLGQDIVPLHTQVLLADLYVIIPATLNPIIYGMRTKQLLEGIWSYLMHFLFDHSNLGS
In short: (§1)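 Values were gathered from published papers (main text and supplementary material), with extra details requested from the original authors when needed, and checked for typos and inconsistencies. Each receptor–molecule pair is called responsive (active) if the original authors judged the measured signal statistically different from baseline, and non-responsive (inactive) otherwise. Assay methods varied by source, often transient mammalian cell-line luciferase assays. Recorded details include cell line, G-protein, co-transfected protein and tags.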

O52J3 = test system: T2, O52J3
T2 sequence (whole entry): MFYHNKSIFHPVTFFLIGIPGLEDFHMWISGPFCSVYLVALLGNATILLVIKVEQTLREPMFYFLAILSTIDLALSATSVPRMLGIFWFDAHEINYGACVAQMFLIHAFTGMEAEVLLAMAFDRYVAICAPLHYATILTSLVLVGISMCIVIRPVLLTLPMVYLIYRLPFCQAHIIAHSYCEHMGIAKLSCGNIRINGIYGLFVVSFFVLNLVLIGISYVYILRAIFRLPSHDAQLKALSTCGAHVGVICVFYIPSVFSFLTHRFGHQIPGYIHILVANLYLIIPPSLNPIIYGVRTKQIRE
In short: as §1

O52L1 = test system: T3, O52L1
T3 sequence (whole entry): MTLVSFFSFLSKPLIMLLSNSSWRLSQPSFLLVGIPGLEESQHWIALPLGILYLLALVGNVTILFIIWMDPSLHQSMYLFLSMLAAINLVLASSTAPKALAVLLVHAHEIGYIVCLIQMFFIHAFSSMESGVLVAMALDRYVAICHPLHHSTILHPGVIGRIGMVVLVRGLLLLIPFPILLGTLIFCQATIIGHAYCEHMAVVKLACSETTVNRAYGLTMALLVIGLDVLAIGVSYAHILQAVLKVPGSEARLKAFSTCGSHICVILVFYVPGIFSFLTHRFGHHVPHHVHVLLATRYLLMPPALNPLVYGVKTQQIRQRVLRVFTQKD
In short: as §1

O52L2 = test system: T4, O52L2
T4 sequence (whole entry): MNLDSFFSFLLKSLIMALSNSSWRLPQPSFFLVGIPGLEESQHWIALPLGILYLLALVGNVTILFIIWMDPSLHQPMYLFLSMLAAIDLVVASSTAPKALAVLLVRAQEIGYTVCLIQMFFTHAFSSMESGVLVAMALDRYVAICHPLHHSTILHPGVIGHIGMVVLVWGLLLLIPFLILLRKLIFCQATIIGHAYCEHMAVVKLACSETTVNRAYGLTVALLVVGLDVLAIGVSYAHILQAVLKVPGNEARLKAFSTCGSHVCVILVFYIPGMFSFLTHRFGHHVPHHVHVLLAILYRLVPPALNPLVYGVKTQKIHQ
In short: as §1

O52M1 = test system: T5, O52M1
T5 sequence (whole entry): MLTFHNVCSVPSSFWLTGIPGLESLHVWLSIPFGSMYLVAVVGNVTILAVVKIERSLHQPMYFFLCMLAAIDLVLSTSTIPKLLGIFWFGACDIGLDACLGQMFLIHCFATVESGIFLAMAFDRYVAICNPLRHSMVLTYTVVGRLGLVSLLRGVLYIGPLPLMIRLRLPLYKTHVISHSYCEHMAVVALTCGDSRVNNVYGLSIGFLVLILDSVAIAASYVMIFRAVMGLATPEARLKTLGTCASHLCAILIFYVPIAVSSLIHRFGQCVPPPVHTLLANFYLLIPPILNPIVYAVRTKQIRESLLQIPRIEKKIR
In short: as §1

O52N1 = test system: T6, O52N1
T6 sequence (whole entry): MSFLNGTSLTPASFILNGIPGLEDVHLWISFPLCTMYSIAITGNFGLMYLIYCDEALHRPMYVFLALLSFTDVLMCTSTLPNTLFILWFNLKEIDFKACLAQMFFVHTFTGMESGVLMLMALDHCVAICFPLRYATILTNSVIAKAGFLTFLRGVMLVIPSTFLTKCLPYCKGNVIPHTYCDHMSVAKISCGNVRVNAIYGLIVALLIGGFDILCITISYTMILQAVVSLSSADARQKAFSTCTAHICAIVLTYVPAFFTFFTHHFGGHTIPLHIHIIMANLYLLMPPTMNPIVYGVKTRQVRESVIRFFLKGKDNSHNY
In short: as §1

O52N2 = test system: T7, O52N2
T7 sequence (whole entry): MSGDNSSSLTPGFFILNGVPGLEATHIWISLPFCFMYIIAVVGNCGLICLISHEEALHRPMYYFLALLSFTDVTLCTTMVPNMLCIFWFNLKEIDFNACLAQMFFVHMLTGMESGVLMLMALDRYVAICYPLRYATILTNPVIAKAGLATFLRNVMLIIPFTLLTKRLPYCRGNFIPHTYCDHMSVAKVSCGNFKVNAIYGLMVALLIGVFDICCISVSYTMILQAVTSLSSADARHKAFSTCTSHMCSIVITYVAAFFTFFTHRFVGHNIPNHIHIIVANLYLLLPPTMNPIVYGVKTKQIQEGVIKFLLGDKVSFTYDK
In short: as §1

O52N4 = test system: T8, O52N4
T8 sequence (whole entry): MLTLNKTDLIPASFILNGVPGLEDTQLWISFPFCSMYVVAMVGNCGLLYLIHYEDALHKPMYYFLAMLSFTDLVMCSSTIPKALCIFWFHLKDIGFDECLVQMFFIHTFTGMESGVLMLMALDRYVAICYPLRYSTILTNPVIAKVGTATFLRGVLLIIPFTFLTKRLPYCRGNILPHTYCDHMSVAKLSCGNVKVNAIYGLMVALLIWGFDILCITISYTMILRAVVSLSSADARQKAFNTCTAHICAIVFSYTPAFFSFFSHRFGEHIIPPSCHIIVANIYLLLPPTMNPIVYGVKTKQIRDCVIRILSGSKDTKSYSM
In short: as §1

O52P1 = test system: T9, O52P1
T9 sequence (whole entry): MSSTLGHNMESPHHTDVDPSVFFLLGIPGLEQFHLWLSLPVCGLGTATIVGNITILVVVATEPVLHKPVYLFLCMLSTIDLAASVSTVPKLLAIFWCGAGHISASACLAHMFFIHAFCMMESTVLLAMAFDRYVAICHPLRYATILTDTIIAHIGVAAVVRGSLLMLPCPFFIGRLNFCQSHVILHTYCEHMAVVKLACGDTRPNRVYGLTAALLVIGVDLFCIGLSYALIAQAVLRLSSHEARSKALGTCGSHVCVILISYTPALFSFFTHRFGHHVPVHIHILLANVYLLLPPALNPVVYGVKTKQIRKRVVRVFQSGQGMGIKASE
In short: as §1

O52R1 = test system: T10, O52R1
T10 sequence (whole entry): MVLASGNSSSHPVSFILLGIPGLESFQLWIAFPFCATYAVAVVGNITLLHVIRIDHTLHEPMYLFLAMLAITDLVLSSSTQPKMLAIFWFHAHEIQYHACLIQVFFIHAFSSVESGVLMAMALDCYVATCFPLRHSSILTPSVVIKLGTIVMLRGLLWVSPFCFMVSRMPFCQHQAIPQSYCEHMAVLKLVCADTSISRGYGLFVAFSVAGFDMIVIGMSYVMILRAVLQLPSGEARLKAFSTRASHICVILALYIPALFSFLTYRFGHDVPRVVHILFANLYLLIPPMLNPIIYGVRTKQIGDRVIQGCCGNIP
In short: as §1

O52W1 = test system: T11, O52W1
T11 sequence (whole entry): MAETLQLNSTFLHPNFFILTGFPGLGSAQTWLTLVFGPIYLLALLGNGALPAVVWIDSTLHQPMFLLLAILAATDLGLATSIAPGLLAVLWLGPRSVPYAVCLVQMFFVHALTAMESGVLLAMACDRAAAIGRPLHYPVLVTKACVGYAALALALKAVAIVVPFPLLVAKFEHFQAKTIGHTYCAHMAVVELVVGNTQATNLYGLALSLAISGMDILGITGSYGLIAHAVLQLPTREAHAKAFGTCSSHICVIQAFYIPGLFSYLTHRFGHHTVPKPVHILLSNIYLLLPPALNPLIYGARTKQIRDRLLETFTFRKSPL
In short: as §1

O56A3 = test system: T12, O56A3
T12 sequence (whole entry): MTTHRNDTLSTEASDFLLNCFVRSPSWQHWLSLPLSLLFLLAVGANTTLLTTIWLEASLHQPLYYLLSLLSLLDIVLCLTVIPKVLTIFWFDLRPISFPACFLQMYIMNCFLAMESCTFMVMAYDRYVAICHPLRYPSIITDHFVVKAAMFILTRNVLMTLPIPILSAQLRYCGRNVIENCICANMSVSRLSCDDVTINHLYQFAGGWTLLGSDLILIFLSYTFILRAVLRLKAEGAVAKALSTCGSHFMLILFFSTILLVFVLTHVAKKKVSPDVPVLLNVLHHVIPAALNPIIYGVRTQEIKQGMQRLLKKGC
In short: as §1

O56B1 = test system: T13, O56B1
T13 sequence (whole entry): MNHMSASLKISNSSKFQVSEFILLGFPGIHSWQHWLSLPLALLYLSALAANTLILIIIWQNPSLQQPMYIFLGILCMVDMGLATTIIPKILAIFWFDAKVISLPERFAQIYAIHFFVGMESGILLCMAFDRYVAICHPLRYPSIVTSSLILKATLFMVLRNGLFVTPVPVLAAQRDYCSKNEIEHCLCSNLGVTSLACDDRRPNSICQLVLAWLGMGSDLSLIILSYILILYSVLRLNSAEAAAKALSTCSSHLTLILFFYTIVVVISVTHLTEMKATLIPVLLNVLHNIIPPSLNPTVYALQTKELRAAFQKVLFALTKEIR
In short: as §1

O56B4 = test system: T14, O56B4
T14 sequence (whole entry): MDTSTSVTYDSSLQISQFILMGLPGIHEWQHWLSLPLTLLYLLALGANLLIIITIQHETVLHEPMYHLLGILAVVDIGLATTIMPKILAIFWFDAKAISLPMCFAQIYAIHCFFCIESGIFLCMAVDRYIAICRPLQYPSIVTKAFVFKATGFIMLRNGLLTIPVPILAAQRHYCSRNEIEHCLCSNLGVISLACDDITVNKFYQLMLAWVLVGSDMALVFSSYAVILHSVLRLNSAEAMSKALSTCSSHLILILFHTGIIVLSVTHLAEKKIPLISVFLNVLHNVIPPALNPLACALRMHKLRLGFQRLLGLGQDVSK
In short: as §1

O5AC2 = test system: T15, O5AC2
T15 sequence (whole entry): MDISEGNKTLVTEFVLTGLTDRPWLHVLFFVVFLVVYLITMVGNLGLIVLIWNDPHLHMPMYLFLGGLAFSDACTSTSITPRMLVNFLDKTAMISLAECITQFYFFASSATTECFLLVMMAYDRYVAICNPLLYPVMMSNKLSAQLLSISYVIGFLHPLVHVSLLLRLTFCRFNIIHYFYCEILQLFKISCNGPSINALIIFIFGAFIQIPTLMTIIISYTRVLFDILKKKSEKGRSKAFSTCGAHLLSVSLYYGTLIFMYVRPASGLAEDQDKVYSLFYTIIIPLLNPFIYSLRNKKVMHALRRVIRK
In short: as §1

O5AK2 = test system: T16, O5AK2
T16 sequence (whole entry): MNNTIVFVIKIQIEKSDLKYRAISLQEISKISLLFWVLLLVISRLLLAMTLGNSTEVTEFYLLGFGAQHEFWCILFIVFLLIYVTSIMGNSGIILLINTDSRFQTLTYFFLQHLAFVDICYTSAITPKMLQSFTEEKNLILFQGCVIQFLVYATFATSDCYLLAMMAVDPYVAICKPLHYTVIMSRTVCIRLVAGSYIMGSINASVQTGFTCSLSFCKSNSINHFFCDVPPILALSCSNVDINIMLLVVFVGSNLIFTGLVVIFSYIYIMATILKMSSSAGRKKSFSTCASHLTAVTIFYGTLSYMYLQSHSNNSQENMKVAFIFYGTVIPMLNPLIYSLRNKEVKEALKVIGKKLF
In short: as §1

O5AK3 = test system: T17, O5AK3
T17 sequence (whole entry): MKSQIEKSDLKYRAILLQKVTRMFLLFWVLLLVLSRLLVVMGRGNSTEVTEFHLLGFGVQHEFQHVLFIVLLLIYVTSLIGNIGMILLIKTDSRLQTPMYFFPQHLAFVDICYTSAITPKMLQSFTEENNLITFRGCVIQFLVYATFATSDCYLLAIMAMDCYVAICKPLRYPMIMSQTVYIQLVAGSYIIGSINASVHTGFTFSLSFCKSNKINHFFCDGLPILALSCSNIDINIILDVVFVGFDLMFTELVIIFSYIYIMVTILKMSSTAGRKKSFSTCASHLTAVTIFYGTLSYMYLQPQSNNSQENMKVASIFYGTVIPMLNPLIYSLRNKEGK
In short: as §1

SMILES	odorant receptor agonist call (O52I2)	odorant receptor agonist call (O52J3)	odorant receptor agonist call (O52L1)	odorant receptor agonist call (O52L2)	odorant receptor agonist call (O52M1)	odorant receptor agonist call (O52N1)	odorant receptor agonist call (O52N2)	odorant receptor agonist call (O52N4)	odorant receptor agonist call (O52P1)	odorant receptor agonist call (O52R1)	odorant receptor agonist call (O52W1)	odorant receptor agonist call (O56A3)	odorant receptor agonist call (O56B1)	odorant receptor agonist call (O56B4)	odorant receptor agonist call (O5AC2)	odorant receptor agonist call (O5AK2)	odorant receptor agonist call (O5AK3)
CC(=O)OCC=C(C)CCC=C(C)C	inactive	inactive	inactive	inactive	inactive	inactive	active	inactive	inactive	inactive	active	inactive	active	inactive	inactive	inactive	inactive
C=CCSCC=C	inactive	inactive	inactive	inactive	inactive	inactive	inactive	inactive	inactive	inactive	inactive	inactive	inactive	inactive	inactive	inactive	inactive
c1ccc(Oc2ccccc2)cc1	inactive	inactive	inactive	inactive	inactive	inactive	inactive	inactive	inactive	inactive	inactive	inactive	inactive	inactive	inactive	inactive	inactive
